# Tests used:
# [1] = general procedure: Fmoc solid-phase peptide synthesis; H-Sar-2-chlorotritylchloride-resin; DIC/HOBt; conditions: conjugation step
# [2] = general procedure: Fmoc solid-phase peptide synthesis; 2-chlorotrityl chloride resin; DIC/HOBt; conditions: whole synthesis, scale of the general procedure 200 mg resin, 0.158
Substance,final HPLC purity [1],final HPLC purity [2]
Benzyloxycarbonyl-Pro-Ala-Gly-Sar-Doxorubicin,HPLC>95%,–
Benzyloxycarbonyl-Pro-Ala-Gly-Sar-OH,–,HPLC>95%

# Source: patent US20020155565A1 (priority 2000, published 2002)
